Data from the ROBIN nucleic acid binder screens, doi:10.1002/anie.202211358.

Targets (5′ to 3′):
T1: TPP riboswitch RNA three-way junction, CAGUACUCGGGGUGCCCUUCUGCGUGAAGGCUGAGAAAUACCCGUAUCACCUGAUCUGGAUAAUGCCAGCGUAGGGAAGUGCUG. About 160 hits among about 24,000 compounds.
T2: SAM-II riboswitch RNA pseudoknot, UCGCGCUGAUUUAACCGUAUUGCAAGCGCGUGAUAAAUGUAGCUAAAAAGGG. About 200 hits among about 21,000 compounds.

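Compounds were printed on reactive glass slides in duplicate spots, a dye-labelled oligonucleotide was laid over them, and the fluorescence left after washing was read. The data file lists only calls. An earlier report of the laboratory on the PreQ1, TPP and SAM-II riboswitches (doi:10.1038/s41467-019-09493-3) used 1 µM RNA for 2 h and required a mean Z-score above 3 (spot signal-to-noise against the whole library), a score well above that on a control array, and duplicate spots agreeing (coefficient of variation under 100); it then also set aside compounds that hit other targets, which this list keeps. The cut-offs behind this list may differ. The calls come from the array alone, and fixing a compound to the slide can hide its binding.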
“active” means called a hit, “inactive” means screened and not called a hit.
The compounds are a random part of those screened.
A target missing from an entry has no call listed here.

- Nc1ncnc2c1ncn2C1C=C(CO)C(O)C1O (stereo unspecified) | T1: inactive; T2: inactive
- COc1cccc(-c2cnc(NCc3cccc(Br)c3)n2C)c1 | T1: inactive; T2: inactive
- Cc1cccc(NC(=O)c2sc3nc4c(cc3c2N)CN(Cc2ccccc2)CC4)c1 | T1: inactive; T2: inactive
- COc1ccc(C2C(C#N)=C(N)Oc3c2oc(CO)cc3=O)cc1Br (stereo unspecified) | T1: inactive; T2: inactive
- CCNc1ccc(S(=O)(=O)C(F)(F)F)cc1[N+](=O)[O-] | T1: inactive; T2: inactive
- Nc1nc(CCC(=O)NCCCN2CCOCC2)cs1 | T1: inactive; T2: inactive
- Nc1cc(OC(=O)c2ccco2)nn1S(=O)(=O)c1ccc(F)cc1 | T1: inactive; T2: inactive
- COc1cc(C2C(C#N)=C(N)Oc3[nH]nc(C(F)(F)F)c32)cc(OC)c1OC (stereo unspecified) | T1: inactive; T2: inactive
- NCCc1ccccc1-c1ccc2c(c1)OCCO2 | T1: inactive; T2: inactive
- CCC12CCCN3CCc4c(n(c5ccccc45)C(O)(C(=O)OC)C1)C32 (stereo unspecified) | T1: inactive; T2: inactive
- O=C(O)C(F)(F)F.O=S(=O)(c1ccc2ccccc2c1)N1CCC(Nc2ccccc2Cl)CC1 | T1: inactive; T2: inactive
- Cc1ccc(NC(=O)N2CCCC(CO)C2)cn1 (stereo unspecified) | T1: inactive; T2: inactive
- Cc1noc(N)c1C(=O)Nc1ccc2c(c1)OCCO2 | T1: inactive; T2: inactive
- CN(CC1(CO)CCOCC1)C(=O)Cn1ccnc1-c1ccccc1 | T1: inactive; T2: inactive
- CC(=O)c1ccc(Nc2ncnc3ccc(Br)cc23)cc1 | T1: inactive; T2: inactive
- Cc1cccnc1NCCNC(=O)CSc1nnc(N)s1 | T1: inactive; T2: inactive
- COc1ccc2cc(-c3ccccc3CN)ccc2c1 | T1: inactive; T2: active
- COC(=O)c1sc2nc3c(cc2c1N)CC(C)CC3 (stereo unspecified) | T1: inactive; T2: inactive
- COc1cccc([C@H]2C[C@@H](c3ccc(Cl)cc3)Nc3nc(N)nn32)c1 | T1: inactive; T2: inactive
- CCC(NC(=O)c1cn([C@H]2CC[C@@H](N)CC2)nn1)c1ncnn1CC (stereo partly specified) | T1: inactive; T2: inactive
- COc1ccc(NC(=O)CCc2c(C)nc3nc(CN)nn3c2C)cc1 | T1: inactive
- S=c1nc[nH]c2nc[nH]c12 | T1: inactive; T2: inactive
- CC(C)=CC[C@@H](O)C1=CC(=O)c2c(O)ccc(O)c2C1=O | T1: inactive; T2: inactive
- O=C1CC(C(=O)Nc2ccccc2)Nc2ccccc21 (stereo unspecified) | T1: inactive; T2: inactive
- C=CCN1C(=O)C(C)(C)Nc2ccccc21 | T1: inactive; T2: inactive
- COc1ccc(Br)cc1Cn1nnc(C(=O)Nc2ccc(C)cc2C)c1N | T1: inactive; T2: inactive
- O=C(Nc1ccc(Cl)c([N+](=O)[O-])c1)Nc1nc2ccccc2s1 | T1: inactive; T2: inactive
- O=C(CCN1CCNCC1)N1CCC2(CCNCC2)CC1 | T1: inactive; T2: inactive
- CC(C)CNc1nc(N(C)C)nc(-n2cnc(SCc3ccccc3)n2)n1 | T1: inactive
- Cc1ccc(CNC(=O)c2nnn(Cc3ccc(Br)cc3)c2N)cc1 | T1: inactive; T2: inactive
- COC(=O)c1ccc(Nc2nc(-c3ccccc3)nc3ccccc23)cc1 | T1: inactive; T2: inactive
- Cc1nc(CCN)cc(NCCC2CCCN2C)n1 (stereo unspecified) | T1: inactive; T2: inactive
- CCCOc1cccc(C2c3c(-c4c(C)cc(C)cc4O)n[nH]c3C(=O)N2CCO)c1 (stereo unspecified) | T1: inactive
- Nc1nc(CSc2ccc(Cl)cc2)nc(N2CCCCC2)n1 | T1: inactive; T2: inactive
- Cc1cc(N(C)C)ccc1/N=N/c1ccc2ncccc2c1 | T1: inactive; T2: inactive
- CNc1cc(C)nc2c(C)c(-c3ccc(Cl)cc3)nn12 | T1: inactive
- OC1(CNCc2nnnn2-c2ccccc2)CCNC1 (stereo unspecified) | T1: inactive; T2: inactive
- Cn1c(=O)c2c(nc(NCc3ccc4c(c3)OCO4)n2Cc2ccc(Br)cc2)n(C)c1=O | T1: inactive; T2: inactive
- O=C1OCC(CO)N1Cc1cc(C2CCCCC2)no1 (stereo unspecified) | T1: inactive; T2: inactive
- CC(=O)N1CCN(Cc2ccc(-c3ccc(C)c(Cl)c3)o2)CC(O)C1 (stereo unspecified) | T1: inactive; T2: inactive
- O=C(NCCO)c1ccc(C=NO)nc1 | T1: inactive; T2: inactive
- COc1ccc(Nc2c(-c3ccc(C)cc3)c(=O)c2=O)c(OC)c1 | T1: inactive
- Cc1nc(N)sc1-c1cc(-c2ccccc2F)c(C#N)c(N)n1 | T1: inactive; T2: inactive
- CNc1ccc(Cl)cc1C(=O)NCCNC(=O)C(F)(F)F | T1: inactive; T2: inactive
- COCc1cc(C)nc2sc(C(=O)Nc3ccc(F)c(Cl)c3)c(N)c12 | T1: inactive; T2: inactive

4 of the entries, repeated:

{"smiles": "COc1cccc([C@H]2C[C@@H](c3ccc(Cl)cc3)Nc3nc(N)nn32)c1", "T1": "inactive", "T2": "inactive"}
{"smiles": "Cc1nc(CCN)cc(NCCC2CCCN2C)n1", "stereo": "stereo unspecified", "T1": "inactive", "T2": "inactive"}
{"smiles": "CC(=O)N1CCN(Cc2ccc(-c3ccc(C)c(Cl)c3)o2)CC(O)C1", "stereo": "stereo unspecified", "T1": "inactive", "T2": "inactive"}
{"smiles": "Nc1cc(OC(=O)c2ccco2)nn1S(=O)(=O)c1ccc(F)cc1", "T1": "inactive", "T2": "inactive"}